Measured data: PubChem BioAssay AID1671195 (Yale University, 2021)

- Test: 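Knockdowns that increase or decrease uptake of fluorescent LDL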 (primary screen)
- Cell system: human Huh7 hepatoma cells
- Reagents: siRNA pool against human genes, 18 nM
- Duration: about 2 to 2.5 days of knockdown, then 8 h LDL uptake
- Treatment: DiI-labelled LDL at 30 µg/ml for 8 h, in lipoprotein-deficient serum medium
- Measured: 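Fluorescent LDL signal imaged in cells, scaled to the plate median, robust z-score for each replicate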
- Scale: robust z-score: higher = more LDL uptake after knockdown
- Hit rule: 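a gene counts as active if at least two replicate z-scores exceed ±2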
Here is one part, drawn at random, of about 22,000 reagents. In the full data, about 1,510 (6.9%) are marked active. 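Active includes knockdowns raising or lowering LDL uptake; positive z-scores mean more uptake, negative mean less.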 Reagents against one gene are numbered here.

The first 3 records as a preview:
gene	reagent	robust z-score, replicate 1	robust z-score, replicate 2	robust z-score, replicate 3	Call
SPATA46 (spermatogenesis associated 46)	1	1.07	0.769	0.711	inactive
PELI1 (pellino E3 ubiquitin protein ligase 1)	1	0.448	1.77	-0.331	inactive
LOC389087 (retired record)	1	-0.0675	0.0687	0.279	inactive

The listing, repeating the preview:
gene	reagent	robust z-score, replicate 1	robust z-score, replicate 2	robust z-score, replicate 3	Call
SPATA46 (spermatogenesis associated 46)	1	1.07	0.769	0.711	inactive
PELI1 (pellino E3 ubiquitin protein ligase 1)	1	0.448	1.77	-0.331	inactive
LOC389087 (retired record)	1	-0.0675	0.0687	0.279	inactive
LOC389768	1	-0.18	0.125	-0.142	inactive
BCS1L (BCS1 ubiquinol-cytochrome c reductase complex chaperone)	1	2.81	1.82	2.64	active
SPDL1 (spindle apparatus coiled-coil protein 1)	1	-0.412	-0.882	0.305	inactive
TBPL2 (TATA-box binding protein like 2)	1	0.494	0.227	0.103	inactive
RSF1 (remodeling and spacing factor 1)	1	-0.643	-1.27	-0.859	inactive
RADX (RPA1 related single stranded DNA binding protein, X-linked)	1	1.94	-0.0926	0.498	inactive
LOC399951 (retired record)	1	-0.0965	-0.757	-0.871	inactive
LOC441629 (retired record)	1	-0.0906	0.0203	-0.239	inactive
LINC02762 (long independently transcribed non-coding RNA 2762)	1	-0.479	0.0274	-0.55	inactive
TKTL2 (transketolase like 2)	1	0.548	0.0277	0.0758	inactive
SRPRA (SRP receptor subunit alpha)	1	-3.12	-1.56	-1.66	inactive
PDXK (pyridoxal kinase)	1	-0.193	0.0783	0.452	inactive
PDXK (pyridoxal kinase)	2	-1.95	-1.9	-1.83	inactive
G6PC2 (glucose-6-phosphatase catalytic subunit 2)	1	0.921	0.526	0.0129	inactive
DDX19B (DEAD-box helicase 19B)	1	-0.926	-1.01	-1.02	inactive
TOMM7 (translocase of outer mitochondrial membrane 7)	1	-1.29	0.698	-1.59	inactive
LOC400707 (retired record)	1	-1.14	-1.81	-1.11	inactive
LOC285321 (retired record)	1	-1.46	-1.59	-1.42	inactive
SLC2A3P2	1	-1.58	-1.2	-1.11	inactive
FBXO46 (F-box protein 46)	1	2.02	2.21	3.12	active
RPL35P1 (ribosomal protein L35 pseudogene 1)	1	-1.15	-0.864	-1.46	inactive
LOC392215 (retired record)	1	0.612	0.653	0.605	inactive
GADD45B (growth arrest and DNA damage inducible beta)	1	-0.149	-0.039	0.2	inactive
LHX3 (LIM homeobox 3)	1	-0.619	-0.319	0.159	inactive
F7 (coagulation factor VII)	1	0.196	-0.0702	-0.265	inactive
LOC389232 (retired record)	1	-1.15	-0.842	-0.796	inactive
PAX8 (paired box 8)	1	-1.92	-1.84	-1.86	inactive
OR6K3 (olfactory receptor family 6 subfamily K member 3)	1	-1.07	-1.14	-1.13	inactive
SMARCC1 (SWI/SNF related BAF chromatin remodeling complex subunit C1)	1	1.15	0.137	1.27	inactive
TMEM244 (transmembrane protein 244)	1	-0.172	-0.354	-0.381	inactive
CC2D2B (coiled-coil and C2 domain containing 2B)	1	-1.33	-1.05	-1.09	inactive
LOC388806 (retired record)	1	-0.494	-0.688	-0.282	inactive
LOC387784 (retired record)	1	0.275	-0.437	-0.0367	inactive
RIPOR1 (RHO family interacting cell polarization regulator 1)	1	0.116	0.0192	0.294	inactive
MIA3 (MIA SH3 domain ER export factor 3)	1	0.00607	0.98	0.153	inactive
SHISA8 (shisa family member 8)	1	-0.0454	-0.026	0.237	inactive
PCDHGB3 (protocadherin gamma subfamily B, 3)	1	-2.42	-2.27	-1.89	active
HMGB3P27 (high mobility group box 3 pseudogene 27)	1	-0.439	-0.15	-0.438	inactive
SATB2-AS1 (SATB2 antisense RNA 1)	1	0.198	-0.543	-0.241	inactive
LOC402094 (retired record)	1	-0.455	0.185	-0.255	inactive
LOC401579 (retired record)	1	-0.292	-1.02	-1.22	inactive
CSPG5 (chondroitin sulfate proteoglycan 5)	1	0.364	-0.769	1.04	inactive
STAB2 (stabilin 2)	1	1.05	1.59	1.32	inactive
TMEM184C (transmembrane protein 184C)	1	-0.253	-1.2	-0.563	inactive
ACAD10 (acyl-CoA dehydrogenase family member 10)	1	1.39	1.14	1.22	inactive
IFITM5 (interferon induced transmembrane protein 5)	1	0.526	0.559	0.537	inactive
NDST2 (N-deacetylase and N-sulfotransferase 2)	1	-0.161	-0.578	0.0375	inactive
LIPG (lipase G, endothelial type)	1	0.991	2.03	1.36	inactive
RTN3 (reticulon 3)	1	-0.0288	0.601	0.787	inactive
RMND5B (required for meiotic nuclear division 5 homolog B)	1	-0.95	-0.93	-0.672	inactive
ANTXR1 (ANTXR cell adhesion molecule 1)	1	0.223	-0.41	0.27	inactive
EPHA8 (EPH receptor A8)	1	-0.476	-0.261	-0.227	inactive
LAIR1 (leukocyte associated immunoglobulin like receptor 1)	1	0.414	0.57	-0.743	inactive
NUP210 (nucleoporin 210)	1	-0.147	-0.336	-0.228	inactive
GPAT4 (glycerol-3-phosphate acyltransferase 4)	1	-2.08	-1.95	-0.853	active
SLC25A6P2	1	0.942	-0.0251	0.52	inactive
UTS2B (urotensin 2B)	1	-0.0654	0.0626	-0.447	inactive
SIM2 (SIM bHLH transcription factor 2)	1	0.97	1.2	-0.232	inactive
WDR86 (WD repeat domain 86)	1	-0.0548	0.203	0.676	inactive
CACNG8 (calcium voltage-gated channel auxiliary subunit gamma 8)	1	-0.524	-0.725	-0.254	inactive
GRN (granulin precursor)	1	-0.0422	0.00428	0.326	inactive
DHRS13 (dehydrogenase/reductase 13)	1	1.21	2.23	1.29	inactive
ZNF233 (zinc finger protein 233)	1	-0.699	-1.07	-0.629	inactive
IMPDH1P1 (inosine monophosphate dehydrogenase 1 pseudogene 1)	1	-0.301	-0.448	-0.719	inactive
SP2 (Sp2 transcription factor)	1	0.938	1.42	0.9	inactive
